Measured data: PubChem BioAssay AID743454 (Peter MacCallum Cancer Centre, 2014)

Screen: 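Genes whose loss kills vorinostat-resistant colon cancer cells under vorinostat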 (primary screen)
Cells: human HCT116-VR colon cancer cells, selected for vorinostat resistance
Reagents: siRNA pool against human genes, 40 nM siRNA pool
Timing: vorinostat for 24 h, read-out about 72 h after transfection
Treatment: vorinostat at 2.5 µM final
Detection: 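Two measures, CellTiter-Fluor viability and luminescent caspase 3/7 activity, each as fold change against same-plate mock wells, mean of duplicates, then screen-wide robust z-score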
Direction: viability robust z-score: higher = more viable cells than screen typical; caspase robust z-score: higher = more caspase 3/7 activity than screen typical
Hit rule: 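a knock-down is a hit when classed RV1 or RV2 for lowered viability, or CA1 or CA2 for caspase activation; those lethal without drug were dropped; hits were retested singly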
Here is a random part of about 18,000 reagents tested. Over the whole deposit, 450 (2.5%) were called active. 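Single biological run; no consistent viability z cut-off exists, so the class columns, not z-scores, define the calls.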

| Gene | viability hit class | caspase hit class | viability robust z-score | caspase robust z-score | outcome |
| --- | --- | --- | --- | --- | --- |
| OR1J4 (olfactory receptor family 1 subfamily J member 4) | no change | no change | 0.79 | -1.07 | inactive |
| RBMY1D (RNA binding motif protein Y-linked family 1 member D) | no change | no change | 0.66 | -0.56 | inactive |
| S100A2 (S100 calcium binding protein A2) | no change | no change | 0.24 | 1.8 | inactive |
| NDUFB4 (NADH:ubiquinone oxidoreductase subunit B4) | no change | no change | 0.8 | -0.49 | inactive |
| ZAR1 (zygote arrest 1) | no change | no change | 0.32 | 0.24 | inactive |
| NSUN6 (NOP2/Sun RNA methyltransferase 6) | no change | no change | 0.51 | -1.61 | inactive |
| EVC2 (EvC ciliary complex subunit 2) | no change | no change | -0.5 | 1.07 | inactive |
| ZNF613 (zinc finger protein 613) | no change | no change | 0.77 | 0.69 | inactive |
| CERCAM (cerebral endothelial cell adhesion molecule) | no change | no change | 0.54 | -0.88 | inactive |
| BMP8B (bone morphogenetic protein 8b) | no change | no change | -0.06 | -0.5 | inactive |
| SLC60A2 | no change | no change | -0.06 | 1.31 | inactive |
| AKR1D1 (aldo-keto reductase family 1 member D1) | no change | no change | 0.12 | 4.06 | inactive |
| TCN1 (transcobalamin 1) | no change | no change | -0.15 | 0.18 | inactive |
| CFAP70 (cilia and flagella associated protein 70) | no change | no change | -0.44 | 0.16 | inactive |
| LUC7L2 (LUC7 like 2, pre-mRNA splicing factor) | no change | no change | -0.2 | -0.64 | inactive |
| CDC25C (cell division cycle 25C) | RV2 (reduced viability) | no change | -3.38 | 0.36 | active |
| GANAB (glucosidase II alpha subunit) | no change | no change | 0.3 | -0.76 | inactive |
| UTP3 (UTP3 small subunit processome component) | RV2 (reduced viability) | no change | -3.12 | 3.12 | active |
| RIMKLA (ribosomal modification protein rimK like family member A) | no change | no change | -0.09 | 0.16 | inactive |
| FBXW11 (F-box and WD repeat domain containing 11) | no change | no change | 0.98 | 1.18 | inactive |
| GID4 (GID complex subunit 4 homolog) | no change | no change | -0.4 | 1.78 | inactive |
| UBR2 (ubiquitin protein ligase E3 component n-recognin 2) | no change | no change | -1.25 | 0.4 | inactive |
| ANKRD13C-DT (ANKRD13C divergent transcript) | no change | CA2 (caspase activation) | -1.42 | 7.66 | active |
| ELF2 (E74 like ETS transcription factor 2) | no change | no change | 0.26 | 0.31 | inactive |
| FCGR2C (Fc gamma receptor IIc (gene/pseudogene)) | no change | no change | -0.57 | 0.4 | inactive |
| KLHL1 (kelch like family member 1) | no change | no change | 0.43 | 5.11 | inactive |
| IL10 (interleukin 10) | no change | no change | 0.42 | 1.8 | inactive |
| TARS1 (threonyl-tRNA synthetase 1) | no change | no change | 0.29 | 0.32 | inactive |
| KANK1 (KN motif and ankyrin repeat domains 1) | no change | no change | 0.02 | -0.04 | inactive |
| TBC1D2 (TBC1 domain family member 2) | no change | no change | -0.16 | 0.96 | inactive |
| ZNF337 (zinc finger protein 337) | no change | no change | -0.39 | -0.26 | inactive |
| PIN4 (peptidylprolyl cis/trans isomerase, NIMA-interacting 4) | no change | no change | 0.12 | -1.1 | inactive |
| ISCU (iron-sulfur cluster assembly enzyme) | no change | no change | -0.92 | 0.38 | inactive |
| ACTA1 (actin alpha 1, skeletal muscle) | no change | no change | 0.58 | 0.3 | inactive |
| MAP3K7CL (MAP3K7 C-terminal like) | no change | no change | 0.17 | -0.48 | inactive |
| KCNJ10 (potassium inwardly rectifying channel subfamily J member 10) | no change | no change | 0.29 | 0.4 | inactive |
| FMO5 (flavin containing dimethylaniline monoxygenase 5) | no change | no change | 0.84 | 0.03 | inactive |
| TMEM167A (transmembrane protein 167A) | no change | no change | 2.14 | 0.02 | inactive |
| PBOV1 (prostate and breast cancer overexpressed 1) | no change | no change | 0.06 | 0.32 | inactive |
